{"source": "PubChem BioAssay AID652272 (Drosophila RNAi Screening Center, 2013)", "screen": "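Genes whose knock-down decreases or increases Hedgehog reporter output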 (primary screen)", "cell system": "Drosophila clone 8 (Cl8) cells", "reagents": "long dsRNA against Drosophila genes", "detection": "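Firefly light from a Hedgehog-responsive ptc promoter reporter and Renilla reference light, both read on a plate reader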", "direction": "firefly Hh reporter signal: higher = more ptc reporter light; Renilla reference signal: higher = more Renilla control light", "call rule": "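Called a hit if the two-replicate mean z-score lies below -2 or above +3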", "meaning of the calls": "active = hit: reporter lowered or raised; inactive = not a hit", "note": "The deposit covers about 21,000 reagents; below is an unselected part of those that have a named target and a result. Of all reagents, 503 (2.4%) got an active call. 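Raw plate light values, not normalised; calls rest on replicate z-scores that were not deposited; hits include reporter decreases as well as increases.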 No sequences are given here. Not given: the amount of reagent, the time to read-out."}
{"target gene": "CG15202", "DRSC id": "DRSC19649", "firefly Hh reporter signal, replicate 1": 1.03e5, "firefly Hh reporter signal, replicate 2": 2.35e5, "Renilla reference signal, replicate 1": 2801, "Renilla reference signal, replicate 2": 9456, "call": "inactive"}
{"target gene": "Dop1R2", "DRSC id": "DRSC13958", "firefly Hh reporter signal, replicate 1": 46678, "firefly Hh reporter signal, replicate 2": 2.63e5, "Renilla reference signal, replicate 1": 11235, "Renilla reference signal, replicate 2": 6597, "call": "inactive"}
{"target gene": "Dop1R2", "DRSC id": "DRSC15379", "firefly Hh reporter signal, replicate 1": 92652, "firefly Hh reporter signal, replicate 2": 77584, "Renilla reference signal, replicate 1": 3114, "Renilla reference signal, replicate 2": 2342, "call": "inactive"}
{"target gene": "CG12288", "DRSC id": "DRSC02155", "firefly Hh reporter signal, replicate 1": 1.01e5, "firefly Hh reporter signal, replicate 2": 69290, "Renilla reference signal, replicate 1": 2800, "Renilla reference signal, replicate 2": 5697, "call": "inactive"}
{"target gene": "List", "DRSC id": "DRSC06520", "firefly Hh reporter signal, replicate 1": 95138, "firefly Hh reporter signal, replicate 2": 47571, "Renilla reference signal, replicate 1": 2468, "Renilla reference signal, replicate 2": 3808, "call": "inactive"}

Laid out differently: 2 of the entries above
target gene | DRSC id | firefly Hh reporter signal, replicate 1 | firefly Hh reporter signal, replicate 2 | Renilla reference signal, replicate 1 | Renilla reference signal, replicate 2 | call
Dop1R2 | DRSC13958 | 46678 | 2.63e5 | 11235 | 6597 | inactive
Dop1R2 | DRSC15379 | 92652 | 77584 | 3114 | 2342 | inactive

Continued:
{"target gene": "dsb", "DRSC id": "DRSC08407", "firefly Hh reporter signal, replicate 1": 44480, "firefly Hh reporter signal, replicate 2": 12949, "Renilla reference signal, replicate 1": 2064, "Renilla reference signal, replicate 2": 1360, "call": "inactive"}
{"target gene": "dsb", "DRSC id": "DRSC08542", "firefly Hh reporter signal, replicate 1": 74477, "firefly Hh reporter signal, replicate 2": 36902, "Renilla reference signal, replicate 1": 2224, "Renilla reference signal, replicate 2": 3008, "call": "inactive"}
{"target gene": "Vps60", "DRSC id": "DRSC10610", "firefly Hh reporter signal, replicate 1": 1.06e5, "Renilla reference signal, replicate 1": 5076, "Renilla reference signal, replicate 2": 3339, "call": "inactive"}
{"target gene": "CR1075", "DRSC id": "DRSC12144", "firefly Hh reporter signal, replicate 1": 1.46e5, "firefly Hh reporter signal, replicate 2": 1.69e5, "Renilla reference signal, replicate 1": 5604, "Renilla reference signal, replicate 2": 5304, "call": "inactive"}
{"target gene": "CG30046", "DRSC id": "DRSC06691", "firefly Hh reporter signal, replicate 1": 1.25e5, "firefly Hh reporter signal, replicate 2": 46576, "Renilla reference signal, replicate 1": 3397, "Renilla reference signal, replicate 2": 3328, "call": "inactive"}
{"target gene": "Noc2", "DRSC id": "DRSC03165", "firefly Hh reporter signal, replicate 1": 40733, "firefly Hh reporter signal, replicate 2": 47072, "Renilla reference signal, replicate 1": 1681, "Renilla reference signal, replicate 2": 1786, "call": "inactive"}
{"target gene": "CHKov1", "DRSC id": "DRSC01566", "firefly Hh reporter signal, replicate 1": 96122, "firefly Hh reporter signal, replicate 2": 1.86e5, "Renilla reference signal, replicate 1": 2453, "Renilla reference signal, replicate 2": 7744, "call": "inactive"}
{"target gene": "CHKov1", "DRSC id": "DRSC01696", "firefly Hh reporter signal, replicate 1": 1.12e5, "firefly Hh reporter signal, replicate 2": 2.61e5, "Renilla reference signal, replicate 1": 15335, "Renilla reference signal, replicate 2": 11203, "call": "inactive"}
{"target gene": "CHKov1", "DRSC id": "DRSC14258", "firefly Hh reporter signal, replicate 1": 4.01e5, "firefly Hh reporter signal, replicate 2": 75443, "Renilla reference signal, replicate 1": 25392, "Renilla reference signal, replicate 2": 2073, "call": "inactive"}
{"target gene": "CHKov1", "DRSC id": "DRSC20937", "firefly Hh reporter signal, replicate 1": 5.99e5, "firefly Hh reporter signal, replicate 2": 2.23e5, "Renilla reference signal, replicate 1": 34096, "Renilla reference signal, replicate 2": 4314, "call": "inactive"}
